# From PubChem BioAssay AID1688 (National Center for Advancing Translational Sciences (NCATS), 2009)
# “And” between values parts separate entries of the source, which are not always exact repeats. Equal values may be shown once. About 2,400 (1.1%) of roughly 220,000 compounds were called active. Inconclusive results, whose numbers are uncertain, are shown with a selection of clear calls. Calls come from the whole dose curve; as a rule, active = well fitted inhibition curve with a large enough effect; inconclusive = small, poorly fitted or top-dose-only effect, or effect the other way; inactive = no such curve, though single readings can be large or run the other way. Potencies beside an inconclusive call are fits to weak or partial responses and may not hold up.
# Assay: qHTS Multiplex Assay to Identify Dual Action Probes in a Cell Model of Huntington: Aggregate Formation (GFP); note: nearly all actives have a fitted effect of over 60% in size
# Conditions: PC12 HttQ103-GFP aggregates, Acumen cytometry, 40 h; activity change, negative = inhibition: at 46.1 µM (top of the series) unless noted
# Outline: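 PC12 cells stably carrying ecdysone-inducible HTT exon 1 Q103–GFP were induced with tebufenozide (100 nM final) and treated with library compounds in titration. GFP aggregates in lysates were counted by laser scanning cytometry.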
# % is set by controls: 0 for no effect and ±100 for the full control effect; potency is the fitted concentration of half-maximal effect.
Compound,Potency,"activity change, negative = inhibition"
COc1ccc(C(=O)O)cc1F,"inconclusive: 1.26 µM [inhibitor, single point]",
O=C(CCCn1c(=S)[nH]c2ccccc2c1=O)NC1CCCC1,,inactive: -10.2%
CCOc1cccc(/C=N/NC(=S)Nc2cc(S(=O)(=O)N3CCOCC3)ccc2N2CCOCC2)c1O,"inconclusive: 7.08 µM [inhibitor, partial curve]",
Cc1ccc(Oc2nc3ccccc3n3c(C)nnc23)c(C)c1,,inactive: 5.92%
Cc1nc(C2CC(=O)OC23CCCCC3)cs1 (stereo not drawn),,inactive: -1.71%
COc1ccc(O)c(/C=N/NC(=O)CSc2nnc(C)n2-c2ccccc2)c1,active: 7.94 µM,
O=C(c1ccc(S(=O)(=O)Nc2ccc(F)cc2)cc1)N1CCN(C(=O)c2ccco2)CC1,"inconclusive: 35.5 µM [inhibitor, single point]",
Cc1cc2[nH]c3ccccc3c2c(C)n1,"inconclusive: 12.6 µM [inhibitor, single point]",
CCOC(=O)c1c(NC(=O)CSc2nc3cc(Cl)ccc3c(=O)n2Cc2ccco2)sc(C(=O)N(C)C)c1C,active: 7.08 µM,
S=C(c1cn(Cc2ccc(Br)cc2)c2ccccc12)N1CCOCC1,,inactive: 1.15%
CN(Cc1nc(-c2ccncc2)no1)S(=O)(=O)c1ccc(Cl)cc1,"inconclusive: 35.5 µM [inhibitor, partial curve]",
CCc1ccc(S(=O)(=O)Nc2cccc(C3OCCCO3)c2)cc1,"inconclusive: 35.5 µM [inhibitor, single point]",
Cc1ncoc1C(=O)N1CCCC(C(=O)c2cccc(OC(C)C)c2)C1 (stereo not drawn),,inactive: 3.26% [at 9.22 µM]
CCCCC1(Cc2ccc([N+](=O)[O-])cc2)C(=O)N(c2ccccc2)N(c2ccccc2)C1=O,active: 10 µM,
C=CC[n+]1c(-c2ccc(OC)cc2)csc1NNC(=O)Nc1ccccc1,active: 10 µM,
Cc1cc(C)nc(NS(=O)(=O)c2ccc(NC(=O)c3ccco3)cc2)n1,,inactive: -3.54%
COc1ccc(C(=O)c2cnc(C(C)C)n2C)cc1,"inconclusive: 5.62 µM [activator, single point]",
Cc1nc(C)c(-c2ccn(C(=O)NC(C)C)n2)s1,,inactive: -3.97% [at 9.22 µM]
Cc1[nH]c2ccccc2c1/C=N/NC(=O)CCC(=O)NCc1ccccc1,,inactive: -7.22% [at 9.22 µM]
Cc1cccc(Cn2nnc3c2C(=O)c2ccccc2C3=O)c1,"inconclusive: 22.4 µM [inhibitor, single point]",
Clc1ccc(OCCn2c(-c3ccco3)nc3ccccc32)cc1,"inconclusive: 25.1 µM [inhibitor, single point]",
Fc1ccc(Nc2nnc(C(F)(F)F)s2)cc1,,inactive: 4.48% [at 9.22 µM]
Cc1nn(Cc2cccc(C(=O)NC(C)c3ccc(C(C)(C)C)cc3)c2)c(C)c1[N+](=O)[O-] (stereo not drawn),"inconclusive: 10 µM [inhibitor, partial curve]",

Compound,Potency,"activity change, negative = inhibition"
COc1cc(CC(=O)OCC(=O)Nc2ccc3c(c2)OCCO3)cc(OC)c1OC,,inactive: -6.37%
CCCCc1nc(NCC2CCCO2)c(C#N)c2c1COC(C)(C)C2 (stereo not drawn),"inconclusive: 3.55 µM [inhibitor, single point]",
Cc1ccc(C)n1-c1ccccc1N,"inconclusive: 11.2 µM [activator, partial curve]",
C[c-]1[c-](C)[c-](C)[c-](C)[c-]1C.[Fe].c1cc2nccc(N3CCCC3)[c-]2c1 (stereo not drawn),,inactive: 1.8% [at 9.22 µM] and inactive: -40.1% [at 9.22 µM]
CCN(CC)S(=O)(=O)c1ccc2nnn(OCC(=O)Nc3cccc(C#N)c3)c2c1,"inconclusive: 1.26 µM [activator, single point]",
COc1ccc(C(=O)C(CCCCC(CN(C)C)C(=O)c2ccc(OC)cc2)CN(C)C)cc1 (stereo not drawn),"inconclusive: 35.5 µM [inhibitor, single point]",
CCOc1cc(C(=O)N/N=C/C(Br)=C/c2ccccc2)cc(OCC)c1OCC,"inconclusive: 35.5 µM [activator, single point]",
CCC1Oc2ccc(C)cc2N(CC(=O)N(Cc2cccnc2)Cc2ccc(C)o2)C1=O (stereo not drawn),"inconclusive: 25.1 µM [activator, single point]",
CCN(CC)c1ccc(NC(=O)CN2CCN(c3nc(C)cc(C)n3)CC2)cc1,,inactive: -14.1%
CC1(C)CC2(CC(C)(C)N1)OC(=O)N1CCc3ccccc3C12C (stereo not drawn),,inactive: 6.4%
CCCNC(=O)CN(c1cccc(F)c1)S(C)(=O)=O,,inactive: -6.18%
CC(C)(C)c1ccc(S(=O)(=O)NCc2ccc(C(=O)N3CCCC3)cc2)cc1,,inactive: 1.56%
Cc1c(/C=N/NC(=O)C2(O)c3ccccc3-c3ccccc32)cnn1C,,inactive: 10.7%
CCOC(=O)C1=C(N)n2c(s/c(=C\c3ccco3)c2=O)=C(C(=O)OCC)C1c1ccco1 (stereo not drawn),"inconclusive: 11.2 µM [activator, partial curve]",
CCn1cc(Cl)c(C(=O)N2N=C3/C(=C/c4cccs4)CCCC3C2c2cccs2)n1 (stereo not drawn),"inconclusive: 35.5 µM [inhibitor, single point]",
CCn1c(CSc2nc3ccccc3s2)nnc1SCC(=O)c1ccc(O)c(O)c1,"inconclusive: 3.55 µM [activator, full curve, poor fit]",
O=C(NCc1cccc(C(F)(F)F)c1)C1CC(c2ccccc2C(F)(F)F)=NO1 (stereo not drawn),"inconclusive: 5.62 µM [inhibitor, single point]",
CCOC(=O)C1(C)C=C(Nc2ccc(O)cc2)C(=O)N1c1ccc(O)cc1 (stereo not drawn),,inactive: 16.7% [at 9.22 µM]
Cc1ccc(C(=O)NC2CCS(=O)(=O)C2)cc1S(=O)(=O)N1CCCCCC1 (stereo not drawn),,inactive: -3.16%
COC(=O)C1=C(C)NC(C)=C(C(=O)OCCCN2CCC(c3ccccc3)(c3ccccc3)CC2)C1c1cccc([N+](=O)[O-])c1 (stereo not drawn),"inconclusive: 28.2 µM [inhibitor, partial curve, poor fit]",
O=c1cc[nH]c2cccc(Cc3ccccc3)c12,,inactive: -14.5%
O=c1c(O)c(-c2ccc3c(c2)OCO3)oc2ccccc12,"inconclusive: 1.41 µM [inhibitor, partial curve]",
CCCCn1c(=N)n(CC(=O)C(C)(C)C)c2ccccc21,"inconclusive: 11.2 µM [inhibitor, single point]",

Compound,Potency,"activity change, negative = inhibition"
Cc1ccc(S(=O)(=O)Oc2ccc(C(c3c(C)[nH][nH]c3=O)c3c(C)[nH][nH]c3=O)cc2)cc1,"inconclusive: 35.5 µM [activator, single point]",
Cc1c(Cl)cccc1NC(=O)CCC(=O)N/N=C/c1ccc[nH]1,"inconclusive: 7.08 µM [inhibitor, full curve]",
CCOc1ccc(NC(=O)CN2CCN(CC(=O)c3ccc(OC)c(OC)c3)CC2)cc1,,inactive: 0.63%
CCCCCCCn1c(=N)n(CC(=O)c2ccco2)c2ccccc21,"inconclusive: 3.55 µM [inhibitor, partial curve]",
C/C=C(\C)CN1CCN(c2cc(C)ccc2C)CC1,"inconclusive: 0.501 µM [inhibitor, partial curve]",
CC(Oc1cc(Cl)ccc1Cl)C(=O)N/N=C\c1ccnn1C (stereo not drawn),,inactive: -3.23%
O=C1C2C(c3cccc(/C=C/c4ccccc4)c3)CC=CC2C(c2ccc(C(F)(F)F)cc2)N1Cc1ccccc1 (stereo not drawn),"inconclusive: 0.501 µM [inhibitor, partial curve]",
COc1cccc(C(=O)Oc2cc3c4c(c2)C(C)=CC(C)(C)N4C(=O)C3=O)c1,"inconclusive: 3.98 µM [inhibitor, partial curve, poor fit]",
CSc1ccccc1NC(=O)COc1ccc(Cl)cc1Cl,"inconclusive: 5.62 µM [inhibitor, single point]",
CCOc1ccc(C(=O)C(CCC(CN(C)C)C(=O)c2ccc(OCC)cc2)CN(C)C)cc1 (stereo not drawn),"inconclusive: 5.62 µM [inhibitor, single point]",
COc1ccc(S(=O)(=O)N2CCc3ccccc32)cc1C(=O)NCCc1ccccn1,"inconclusive: 22.4 µM [inhibitor, single point]",
COC(=O)c1n[nH]n(-c2cc(Cl)cc(Cl)c2)c1=O,,inactive: -8.13% [at 9.22 µM]
CCCc1cc2c(cc1NC(=O)c1ccccc1C)OCO2,"inconclusive: 35.5 µM [activator, single point]",
Cc1ccc(NS(=O)(=O)c2ccc(NC(=O)C(C)Sc3ccc(Cl)cc3)cc2)c(C)c1 (stereo not drawn),"inconclusive: 35.5 µM [inhibitor, single point]",
COc1ccc(CNC(=O)C2CCCN(S(=O)(=O)c3cc(C)ccc3OC)C2)cc1 (stereo not drawn),"inconclusive: 0.562 µM [inhibitor, partial curve, poor fit]",
O=C(/C=C/c1ccco1)N(Cc1cccc(Cl)c1)C1CCS(=O)(=O)C1 (stereo not drawn),"inconclusive: 0.891 µM [inhibitor, single point]",
CCCCCn1c(=O)[nH]c2cc(C(=O)NCc3ccc4c(c3)OCO4)ccc2c1=O,"inconclusive: 22.4 µM [activator, single point]",
Cc1cccc(N2CCN(C(=O)c3cn(C)c(=O)c4c3c3ccccc3n4C)CC2)c1C,"inconclusive: 35.5 µM [inhibitor, single point]",
O=C(NC1CCCCC1)c1cc2nc3c(c(C(F)(F)F)n2n1)CCCC3,,inactive: 5.66%
CC(NC(=O)Cn1nnc(-c2ccncc2)n1)c1ccccc1 (stereo not drawn),"inconclusive: 28.2 µM [inhibitor, single point]",
COC(=O)c1sc(-c2ccccc2)cc1NC(=O)C1CC1,"inconclusive: 14.1 µM [inhibitor, single point]",
COc1ccc(CN(C)C(C)C(=O)NC2CCCc3ccccc32)cc1 (stereo not drawn),"inconclusive: 15.8 µM [inhibitor, single point]",

# Single entries from the entries so far.
# Entry for COC(=O)c1sc(-c2ccccc2)cc1NC(=O)C1CC1 under Potency: inconclusive: 14.1 µM [inhibitor, single point]
# Entry for Cc1c(Cl)cccc1NC(=O)CCC(=O)N/N=C/c1ccc[nH]1 under Potency: inconclusive: 7.08 µM [inhibitor, full curve]
# Entry for Cc1ccc(NS(=O)(=O)c2ccc(NC(=O)C(C)Sc3ccc(Cl)cc3)cc2)c(C)c1 (stereo not drawn) under Potency: inconclusive: 35.5 µM [inhibitor, single point]
